Laboratory results taken from patent US11793787B2, “Methods and compositions for enhancing anti-tumor immunity by targeting steroidogenesis” (The Broad Institute, Inc., priority 2019, dated 2023).
For at least one compound, name, drawing or mass did not settle the structure.

How the values were obtained:
[1] = cited from earlier work
[2] = cited from earlier work; remark: listed apart in the source
MC38 tumors = assay: GC (Dex) with anti-PD1+anti-CTLA-4 in MC38 tumor-bearing mice; type: in vivo, mouse; details: high-dose GC, 10 consecutive days
CD8+ T cells [3] = type: cell-based, mouse
CD8+ T cells [4] = assay: Quantitative RT-PCR of Prdm1, Nfil3 and Tcf7 in GC, IL-27 or GC+IL-27 treated CD8+ T cells; type: cell-based, mouse; details: qPCR
Protocol: Cell culture and treatment with glucocorticoid.
Quantitative PCR. Total RNA was extracted using RNeasy columns (Qiagen) or PicoPure™ RNA Isolation Kit (Thermo Fischer). Reverse transcription of mRNA was performed in a thermal cycler (Bio-Rad) using iScript cDNA Synthesis Kit (Bio-Rad) or SuperScript™ VILO™ cDNA Synthesis Kit (Thermo Fischer). qPCR was performed in the Vii7 Real-Time PCR system (Applied Biosystems) using the primers for Taqman gene expression (Applied Biosystems). Data were normalized to the expression of Actb.

human CD8+ T cells = assay: Human naive CD8+ T cell culture with dexamethasone, flow cytometry; type: cell-based; details: for induction of checkpoint receptor expression in human CD8+ T cells: 10 nM dexamethasone, Day 9

C[C@H]1C[C@@H]2[C@H]([C@@H](O)C[C@@]3(C)[C@H]2CC[C@]3(O)C(=O)CO)[C@@]2(C)C=CC(=O)C=C12 [Methylprednisolone]
Mineralocorticoid potency [1]: 0.5
Glucocorticoid potency [2]: 5-7.5

C[C@H]1C[C@H]2[C@@H]3CCC4=CC(=O)C=C[C@]4(C)[C@@]3(F)[C@@H](O)C[C@]2(C)[C@@]1(O)C(=O)CO [Betamethasone]
Mineralocorticoid potency [1]: 0

C[C@]12CCC(=O)C=C1CC[C@@H]1[C@@H]2C(=O)C[C@@]2(C)[C@H]1CC[C@]2(O)C(=O)CO [Cortisone]
Mineralocorticoid potency [1]: 0.8

C[C@@H]1C[C@H]2[C@@H]3CCC4=CC(=O)C=C[C@]4(C)[C@@]3(F)[C@@H](O)C[C@]2(C)[C@@]1(O)C(=O)CO [dexamethasone]
response to anti-CTLA-4+anti-PD-1 (MC38 tumors): abrogated
Mineralocorticoid potency [1]: 0
frequency of Tim-3+PD-1+ CD8+ T cells (CD8+ T cells [3]; murine samples): increased
expression of Tigit (CD8+ T cells [3]; repeated activation, 10 nM dexamethasone, Day 9): but not Tigit
production of the pro-inflammatory cytokines IFN-γ, IL-2 and TNF-α (CD8+ T cells [3]; repeated activation, 10 nM dexamethasone, Day 9, PMA/ionomycin 4 hrs): profoundly suppressed
T cell survival and proliferation (CD8+ T cells [3]; viable CD8+ T cells, division index): not due to reduced T cell survival or altered proliferation
Tcf7 expression (CD8+ T cells [4]): dramatically reduced
induction of checkpoint receptor expression in human CD8+ T cells (human CD8+ T cells): conserved
induction of checkpoint receptor expression in human CD8+ T cells (human CD8+ T cells; listed as Dex): induces
frequency of Tim-3+PD-1+ CD8+ T cells (human CD8+ T cells; human samples): increased
